Test results as given in PMC12072129.
Results are given in words; binding and its absence hold for the method and conditions named. Binding seen in cells or lysates may run through a third protein. Some binding calls cover weakened binding; strength is not graded here.

Amino acid sequences for entries named in this document (tags omitted).
UniProt Q9R0L6: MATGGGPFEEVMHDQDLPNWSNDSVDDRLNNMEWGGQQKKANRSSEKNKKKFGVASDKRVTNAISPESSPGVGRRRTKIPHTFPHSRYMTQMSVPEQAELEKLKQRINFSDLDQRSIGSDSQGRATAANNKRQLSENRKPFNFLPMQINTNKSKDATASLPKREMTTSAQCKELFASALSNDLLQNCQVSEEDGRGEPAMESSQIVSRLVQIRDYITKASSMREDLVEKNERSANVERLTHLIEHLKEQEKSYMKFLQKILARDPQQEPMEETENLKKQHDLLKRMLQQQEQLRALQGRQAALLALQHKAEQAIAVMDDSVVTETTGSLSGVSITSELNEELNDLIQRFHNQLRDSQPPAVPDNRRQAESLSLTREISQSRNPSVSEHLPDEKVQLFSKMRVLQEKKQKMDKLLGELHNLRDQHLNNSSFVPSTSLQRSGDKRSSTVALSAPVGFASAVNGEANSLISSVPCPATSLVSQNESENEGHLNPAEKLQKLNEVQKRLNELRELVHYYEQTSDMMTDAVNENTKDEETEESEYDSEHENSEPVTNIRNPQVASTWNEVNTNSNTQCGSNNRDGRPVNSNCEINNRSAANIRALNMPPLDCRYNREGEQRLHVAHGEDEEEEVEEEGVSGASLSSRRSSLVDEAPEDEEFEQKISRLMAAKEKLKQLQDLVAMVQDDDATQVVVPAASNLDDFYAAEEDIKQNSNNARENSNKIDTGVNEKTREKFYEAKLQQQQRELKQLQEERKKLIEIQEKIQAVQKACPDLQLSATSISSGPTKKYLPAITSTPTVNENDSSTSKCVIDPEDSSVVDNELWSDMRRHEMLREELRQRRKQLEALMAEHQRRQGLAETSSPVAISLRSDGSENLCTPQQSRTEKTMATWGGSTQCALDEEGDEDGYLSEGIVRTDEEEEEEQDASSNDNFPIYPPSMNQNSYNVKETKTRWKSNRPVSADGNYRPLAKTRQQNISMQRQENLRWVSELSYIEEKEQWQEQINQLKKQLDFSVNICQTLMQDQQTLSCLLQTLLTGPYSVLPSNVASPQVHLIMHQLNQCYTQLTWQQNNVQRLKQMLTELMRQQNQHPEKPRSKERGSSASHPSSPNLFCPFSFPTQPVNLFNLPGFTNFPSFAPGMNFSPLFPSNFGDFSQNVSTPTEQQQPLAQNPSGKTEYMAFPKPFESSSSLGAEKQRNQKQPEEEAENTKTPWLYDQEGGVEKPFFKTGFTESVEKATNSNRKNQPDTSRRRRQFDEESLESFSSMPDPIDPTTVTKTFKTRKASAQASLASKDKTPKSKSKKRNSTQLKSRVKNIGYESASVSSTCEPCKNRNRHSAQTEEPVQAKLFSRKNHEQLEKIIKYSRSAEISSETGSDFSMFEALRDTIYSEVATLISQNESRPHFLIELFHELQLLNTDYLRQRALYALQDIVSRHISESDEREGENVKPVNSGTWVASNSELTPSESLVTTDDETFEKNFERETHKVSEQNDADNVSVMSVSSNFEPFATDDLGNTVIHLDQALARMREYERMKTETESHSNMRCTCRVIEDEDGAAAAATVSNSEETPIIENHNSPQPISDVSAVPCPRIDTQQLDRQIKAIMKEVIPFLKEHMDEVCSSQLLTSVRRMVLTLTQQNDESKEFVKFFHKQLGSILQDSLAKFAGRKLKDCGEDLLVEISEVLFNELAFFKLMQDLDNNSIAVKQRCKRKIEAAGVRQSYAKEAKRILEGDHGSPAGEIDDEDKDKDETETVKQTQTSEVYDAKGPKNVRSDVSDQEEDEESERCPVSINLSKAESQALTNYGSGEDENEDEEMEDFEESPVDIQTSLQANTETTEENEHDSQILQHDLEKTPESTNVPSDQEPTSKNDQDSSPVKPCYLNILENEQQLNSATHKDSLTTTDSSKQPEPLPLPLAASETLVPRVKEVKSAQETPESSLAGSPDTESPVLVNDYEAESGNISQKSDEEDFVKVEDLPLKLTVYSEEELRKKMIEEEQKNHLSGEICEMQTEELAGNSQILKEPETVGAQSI

Molecular target: PCM1, endogenous in mouse germ cell lines (mouse (endogenous in GC1 and GC2)) (UniProt Q9R0L6)
Assay: co-IP; GC1 and GC2 cell lysates incubated with anti-PIBF1 antibody, anti-PCM1 antibody or rabbit IgG; endogenous USO1 detected in the precipitate

B1: USO1 vesicle transport factor (USO1), endogenous in mouse germ cell lines (protein, UniProt Q9Z1Z0 1-959)
chain: MNFLRGVMGGQSAGPQHTEAETIQKLCDRVASSTLLDDRRNAVRALKSLSKKYRLEVGIQAMEHLIHVLQTDRSDSEIIAYALDTLYNIISNDEEEELEENSTRQSEDLGSQFTEIFIKQPENVTLLLSLLEEFDFHVRWPGVRLLTSLLKQLGPPVQQIILVSPMGVSRLMDLLADSREIIRNDGVLLLQALTRSNGAIQKIVAFENAFERLLDIITEEGNSDGGIVVEDCLILLQNLLKTNNSNQNFFKEGSYIQRMKPWFEVGEENSGWSAQKVTNLHLMLQLVRVLVSPTNPPGATSSCQKAMFQCGLLQQLCTILMATGIPADILTETINTVSEVIRGCQVNQDYFASVNAPSNPPRPAIVVLLMSMVNERQPFVLRCAVLYCFQCFLYKNEKGQGEIVATLLPSTIDATGNSVSAGQLLCGGLFSTDSLSNWCAAVALAHALQGNATQKEQLLRVQLATSIGNPPVSLLQQCTNILSQGSKIQTRVGLLMLLCTWLSNCPIAVTHFLHNSANVPFLTGQIAENLGEEEQLVQGLCALLLGISIYFNDNSLENYTKEKLKQLIEKRIGKENFIEKLGFISKHELYSRASQKPQPNFPSPEYMIFDHEFTKLVKELEGVITKAIYKSSEEDKKEEEVKKTLEQHDNIVTHYKNMIREQDLQLEELKQQVSTLKCQNEQLQTAVTQQASQIQQHKDQYNLLKVQLGKDNHHQGSHGDGAQVNGIQPEEISRLREEIEELKSQQALLQGQLAEKDSLIENLKSSQASGMSEQASATCPPRDPEQVAELKQELTALKSQLCSQSLEITRLQTENCELLQRAETLAKSVPVEGESEHVSAAKTTDVEGRLSALLQETKELKNEIKALSEERTAIQKQLDSSNSTIAILQTEKDKLDLEVTDSKKEQDDLLVLLADQDQKILSLKSKLKDLGHPVEEEDESGDQEDDDDEIDDGDKDQDI
With B1 the binding was “binds”.
